Measurements: the supplement of paper PMC12067093, “Discovery and optimisation of a covalent ligand for TRIM25 and its application to targeted protein ubiquitination” (Chemical Science, 2025)
The list shows a part of the results.

The chains behind the UniProt entries cited, without tags or fusion partners. Where a name states a change or a piece, a line headed by the entry shows the natural chain unless it says otherwise.
UniProt P35813: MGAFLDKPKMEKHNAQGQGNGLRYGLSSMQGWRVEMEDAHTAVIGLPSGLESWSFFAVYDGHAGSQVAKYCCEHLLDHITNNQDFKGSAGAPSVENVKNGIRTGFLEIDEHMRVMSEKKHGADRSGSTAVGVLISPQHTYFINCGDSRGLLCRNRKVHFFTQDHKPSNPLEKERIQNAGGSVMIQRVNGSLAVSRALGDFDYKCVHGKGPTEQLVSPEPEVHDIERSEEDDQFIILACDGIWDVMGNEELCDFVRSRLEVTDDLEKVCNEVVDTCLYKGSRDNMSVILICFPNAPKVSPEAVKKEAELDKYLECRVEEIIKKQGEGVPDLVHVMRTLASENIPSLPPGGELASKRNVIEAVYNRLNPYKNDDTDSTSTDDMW
UniProt O95685: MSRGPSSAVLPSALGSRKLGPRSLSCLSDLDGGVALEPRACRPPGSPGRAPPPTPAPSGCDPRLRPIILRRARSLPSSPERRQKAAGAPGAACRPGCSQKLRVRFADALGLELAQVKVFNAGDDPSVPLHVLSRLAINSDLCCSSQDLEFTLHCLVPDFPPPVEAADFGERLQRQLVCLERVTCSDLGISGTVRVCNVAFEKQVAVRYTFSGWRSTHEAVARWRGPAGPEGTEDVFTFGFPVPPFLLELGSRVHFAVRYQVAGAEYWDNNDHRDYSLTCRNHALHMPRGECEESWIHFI
UniProt Q96QC0: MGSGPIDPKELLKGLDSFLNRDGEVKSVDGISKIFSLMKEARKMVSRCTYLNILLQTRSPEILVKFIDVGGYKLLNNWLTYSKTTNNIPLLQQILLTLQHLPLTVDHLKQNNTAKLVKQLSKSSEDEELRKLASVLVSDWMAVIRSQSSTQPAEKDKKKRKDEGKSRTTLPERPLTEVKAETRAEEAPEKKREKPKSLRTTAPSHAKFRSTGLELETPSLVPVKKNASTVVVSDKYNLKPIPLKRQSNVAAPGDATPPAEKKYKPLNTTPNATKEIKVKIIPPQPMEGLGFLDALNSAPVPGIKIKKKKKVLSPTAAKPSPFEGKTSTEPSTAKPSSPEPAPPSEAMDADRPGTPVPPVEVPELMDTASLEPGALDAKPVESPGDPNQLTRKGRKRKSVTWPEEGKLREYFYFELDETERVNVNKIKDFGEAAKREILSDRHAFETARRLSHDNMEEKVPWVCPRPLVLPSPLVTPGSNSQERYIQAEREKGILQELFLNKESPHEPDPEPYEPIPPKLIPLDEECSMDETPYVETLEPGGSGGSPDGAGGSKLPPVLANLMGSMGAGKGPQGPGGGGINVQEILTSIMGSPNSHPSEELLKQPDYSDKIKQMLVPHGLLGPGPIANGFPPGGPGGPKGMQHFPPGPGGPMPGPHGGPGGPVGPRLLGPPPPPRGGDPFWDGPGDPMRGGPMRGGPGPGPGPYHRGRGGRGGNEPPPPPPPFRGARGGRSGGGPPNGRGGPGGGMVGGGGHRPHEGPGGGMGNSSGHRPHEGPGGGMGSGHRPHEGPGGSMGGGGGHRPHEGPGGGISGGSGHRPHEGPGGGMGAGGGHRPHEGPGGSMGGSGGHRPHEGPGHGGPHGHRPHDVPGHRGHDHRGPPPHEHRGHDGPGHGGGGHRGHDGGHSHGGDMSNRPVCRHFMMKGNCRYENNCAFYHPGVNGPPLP
UniProt Q9HCU5: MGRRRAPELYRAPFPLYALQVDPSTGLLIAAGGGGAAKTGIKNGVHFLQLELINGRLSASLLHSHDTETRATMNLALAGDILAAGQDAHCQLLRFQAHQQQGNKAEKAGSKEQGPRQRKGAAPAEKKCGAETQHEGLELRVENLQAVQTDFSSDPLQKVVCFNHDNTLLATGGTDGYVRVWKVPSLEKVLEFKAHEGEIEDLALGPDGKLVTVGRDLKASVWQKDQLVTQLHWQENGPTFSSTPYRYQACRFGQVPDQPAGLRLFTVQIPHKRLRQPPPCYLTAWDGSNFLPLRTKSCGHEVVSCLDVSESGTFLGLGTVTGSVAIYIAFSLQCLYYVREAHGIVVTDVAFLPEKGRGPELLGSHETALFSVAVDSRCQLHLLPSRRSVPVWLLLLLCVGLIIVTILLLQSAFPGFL
UniProt O00743: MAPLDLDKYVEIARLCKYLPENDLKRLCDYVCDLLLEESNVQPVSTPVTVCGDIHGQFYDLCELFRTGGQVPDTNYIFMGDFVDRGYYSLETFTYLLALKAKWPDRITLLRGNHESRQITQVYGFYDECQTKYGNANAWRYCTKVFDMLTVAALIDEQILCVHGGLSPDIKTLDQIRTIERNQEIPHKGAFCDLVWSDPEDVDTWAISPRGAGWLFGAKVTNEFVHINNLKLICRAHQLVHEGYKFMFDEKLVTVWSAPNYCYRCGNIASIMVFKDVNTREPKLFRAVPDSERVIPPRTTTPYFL
UniProt Q5H9R7: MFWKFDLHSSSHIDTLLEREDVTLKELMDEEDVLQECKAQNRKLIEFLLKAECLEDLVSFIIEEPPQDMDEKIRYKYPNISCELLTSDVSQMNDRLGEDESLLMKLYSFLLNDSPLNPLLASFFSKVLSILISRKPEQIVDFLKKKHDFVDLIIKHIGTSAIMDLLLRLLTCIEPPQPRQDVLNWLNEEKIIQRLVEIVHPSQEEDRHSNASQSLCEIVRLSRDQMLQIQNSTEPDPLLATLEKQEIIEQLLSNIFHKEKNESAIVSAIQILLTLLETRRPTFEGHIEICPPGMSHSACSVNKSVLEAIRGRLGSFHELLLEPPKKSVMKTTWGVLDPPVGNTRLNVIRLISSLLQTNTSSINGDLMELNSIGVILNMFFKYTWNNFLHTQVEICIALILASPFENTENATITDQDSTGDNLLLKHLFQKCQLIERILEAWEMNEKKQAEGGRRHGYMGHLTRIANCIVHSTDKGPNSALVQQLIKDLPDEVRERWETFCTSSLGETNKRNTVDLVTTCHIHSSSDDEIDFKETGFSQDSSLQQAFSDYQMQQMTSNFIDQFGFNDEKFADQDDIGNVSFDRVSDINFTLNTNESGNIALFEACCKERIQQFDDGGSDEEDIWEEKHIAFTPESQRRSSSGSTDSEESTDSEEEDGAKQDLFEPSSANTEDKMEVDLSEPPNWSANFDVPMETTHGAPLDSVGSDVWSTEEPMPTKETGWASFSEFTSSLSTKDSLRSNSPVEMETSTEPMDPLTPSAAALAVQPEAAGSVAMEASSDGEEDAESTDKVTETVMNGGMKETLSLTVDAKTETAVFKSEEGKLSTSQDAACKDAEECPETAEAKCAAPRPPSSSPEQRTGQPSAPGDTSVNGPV
UniProt Q8TF05: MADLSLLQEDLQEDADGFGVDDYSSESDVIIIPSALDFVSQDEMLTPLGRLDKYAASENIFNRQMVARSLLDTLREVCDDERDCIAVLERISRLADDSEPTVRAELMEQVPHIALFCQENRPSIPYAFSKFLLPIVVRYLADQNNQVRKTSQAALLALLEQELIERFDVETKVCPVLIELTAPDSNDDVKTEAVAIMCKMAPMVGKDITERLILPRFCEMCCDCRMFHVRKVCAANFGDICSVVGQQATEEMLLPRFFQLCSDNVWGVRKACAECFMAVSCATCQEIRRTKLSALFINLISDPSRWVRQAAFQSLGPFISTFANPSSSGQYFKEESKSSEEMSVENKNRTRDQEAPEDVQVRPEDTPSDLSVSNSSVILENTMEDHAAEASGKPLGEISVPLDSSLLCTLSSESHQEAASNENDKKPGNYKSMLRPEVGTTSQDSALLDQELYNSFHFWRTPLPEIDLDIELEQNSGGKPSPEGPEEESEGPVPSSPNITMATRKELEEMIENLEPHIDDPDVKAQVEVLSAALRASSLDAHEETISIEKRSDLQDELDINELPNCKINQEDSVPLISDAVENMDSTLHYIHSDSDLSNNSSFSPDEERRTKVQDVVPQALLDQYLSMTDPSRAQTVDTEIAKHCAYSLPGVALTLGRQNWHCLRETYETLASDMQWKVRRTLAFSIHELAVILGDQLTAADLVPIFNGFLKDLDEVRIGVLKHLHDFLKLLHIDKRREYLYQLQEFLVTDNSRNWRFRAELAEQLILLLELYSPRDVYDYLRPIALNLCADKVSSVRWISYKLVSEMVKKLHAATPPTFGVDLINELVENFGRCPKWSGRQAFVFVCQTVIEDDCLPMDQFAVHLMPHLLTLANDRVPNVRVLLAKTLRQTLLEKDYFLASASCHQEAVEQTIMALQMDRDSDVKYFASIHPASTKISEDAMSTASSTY
UniProt P30154, whole entry, looked up: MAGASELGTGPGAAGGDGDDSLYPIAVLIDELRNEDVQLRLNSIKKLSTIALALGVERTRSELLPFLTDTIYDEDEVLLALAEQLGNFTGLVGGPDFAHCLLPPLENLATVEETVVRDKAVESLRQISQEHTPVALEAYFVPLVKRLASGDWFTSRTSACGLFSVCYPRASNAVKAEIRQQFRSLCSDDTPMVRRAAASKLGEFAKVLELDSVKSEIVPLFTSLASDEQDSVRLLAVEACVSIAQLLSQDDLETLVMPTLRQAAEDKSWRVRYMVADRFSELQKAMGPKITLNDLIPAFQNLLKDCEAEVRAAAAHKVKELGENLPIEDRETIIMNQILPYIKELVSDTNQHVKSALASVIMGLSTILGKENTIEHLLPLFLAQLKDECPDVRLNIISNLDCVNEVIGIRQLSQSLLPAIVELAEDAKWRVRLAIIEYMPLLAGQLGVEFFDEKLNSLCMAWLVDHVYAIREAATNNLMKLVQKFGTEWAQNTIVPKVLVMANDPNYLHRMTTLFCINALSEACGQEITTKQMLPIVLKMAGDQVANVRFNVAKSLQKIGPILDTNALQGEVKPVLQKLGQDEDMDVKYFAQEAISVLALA
UniProt P30153, whole entry, looked up: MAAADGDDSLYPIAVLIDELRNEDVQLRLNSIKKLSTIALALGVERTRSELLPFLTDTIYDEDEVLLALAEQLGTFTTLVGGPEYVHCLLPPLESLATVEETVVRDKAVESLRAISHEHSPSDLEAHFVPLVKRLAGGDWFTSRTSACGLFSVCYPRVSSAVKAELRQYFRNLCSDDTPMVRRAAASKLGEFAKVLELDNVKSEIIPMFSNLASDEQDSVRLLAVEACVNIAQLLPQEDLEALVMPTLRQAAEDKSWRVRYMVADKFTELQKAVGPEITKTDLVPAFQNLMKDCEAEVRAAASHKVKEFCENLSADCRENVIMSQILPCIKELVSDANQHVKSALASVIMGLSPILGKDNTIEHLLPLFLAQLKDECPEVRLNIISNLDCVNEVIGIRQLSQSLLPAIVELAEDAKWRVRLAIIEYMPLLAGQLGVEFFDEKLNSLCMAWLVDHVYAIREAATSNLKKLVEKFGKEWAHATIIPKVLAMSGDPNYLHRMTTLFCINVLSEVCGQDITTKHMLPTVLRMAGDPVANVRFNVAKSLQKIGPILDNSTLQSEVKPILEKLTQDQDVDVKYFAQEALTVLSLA
UniProt B7ZBB8: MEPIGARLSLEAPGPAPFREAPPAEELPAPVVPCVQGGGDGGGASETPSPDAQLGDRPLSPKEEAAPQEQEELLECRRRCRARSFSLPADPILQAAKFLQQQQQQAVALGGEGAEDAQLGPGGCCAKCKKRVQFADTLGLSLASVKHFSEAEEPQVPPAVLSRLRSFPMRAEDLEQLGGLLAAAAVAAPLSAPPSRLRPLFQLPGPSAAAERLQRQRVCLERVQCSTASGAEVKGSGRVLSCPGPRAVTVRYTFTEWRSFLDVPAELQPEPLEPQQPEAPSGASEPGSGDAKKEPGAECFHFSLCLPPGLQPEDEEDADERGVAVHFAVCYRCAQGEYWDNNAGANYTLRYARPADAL
UniProt P50897: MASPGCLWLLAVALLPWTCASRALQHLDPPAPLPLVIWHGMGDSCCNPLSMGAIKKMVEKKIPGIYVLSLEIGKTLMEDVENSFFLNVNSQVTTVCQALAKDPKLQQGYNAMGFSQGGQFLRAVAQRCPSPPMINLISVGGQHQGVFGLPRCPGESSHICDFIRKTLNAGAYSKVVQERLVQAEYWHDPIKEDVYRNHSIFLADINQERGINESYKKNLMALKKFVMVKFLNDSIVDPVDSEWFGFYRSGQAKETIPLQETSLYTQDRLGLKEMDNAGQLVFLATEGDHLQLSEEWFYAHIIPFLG
UniProt Q9ULR3: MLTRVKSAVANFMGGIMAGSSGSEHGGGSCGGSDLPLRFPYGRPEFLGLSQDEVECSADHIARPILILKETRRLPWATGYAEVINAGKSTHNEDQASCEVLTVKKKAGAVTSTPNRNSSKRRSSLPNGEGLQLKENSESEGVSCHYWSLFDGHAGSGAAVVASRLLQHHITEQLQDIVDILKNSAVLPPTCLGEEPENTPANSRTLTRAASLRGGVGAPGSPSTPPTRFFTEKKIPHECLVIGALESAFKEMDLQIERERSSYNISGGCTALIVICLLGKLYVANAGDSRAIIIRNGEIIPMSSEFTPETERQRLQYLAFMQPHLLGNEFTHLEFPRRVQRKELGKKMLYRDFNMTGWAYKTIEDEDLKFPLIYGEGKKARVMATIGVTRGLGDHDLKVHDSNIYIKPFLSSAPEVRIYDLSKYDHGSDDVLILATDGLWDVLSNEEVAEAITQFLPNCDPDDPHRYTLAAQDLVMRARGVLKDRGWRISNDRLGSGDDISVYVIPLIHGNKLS

Compound: CC1Cc2ccccc2N1C(=O)C1CCCN(C1)C(=O)CCl (mixture of isomers) [TRIM25 ligand 11 (diastereomer mixture)]
Test: probe-labelled cysteine peptide fold change vs DMSO (competition) (log2 fold change); higher = less target engagement (more negative = stronger competition)
Settings: 10 µM; THP-1; incubation time: 4 h
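Further: competitive chemoproteomic profiling in live THP-1 cells with an iodoacetamide desthiobiotin (IA-DTB) probe, comparing probe-labelled peptide intensities in compound-treated cells against DMSO-treated controls.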

Target	probe-labelled cysteine peptide fold change
PPM1A_P35813_268_VCNEVVDTCLYK (UniProt P35813)	0.0218
PPP4C_P60510_235_GAGYLFGSDVVAQFNAANDIDMICR (UniProt P60510)	-0.278
PPP1R3D_O95685_279_YQVAGAEYWDNNDHRDYSLTCR (UniProt O95685)	-0.0121
PPP1R10_Q96QC0_912_GHDGGHSHGGDMSNRPVCR (UniProt Q96QC0)	0.052
PREPL_Q4J6C6_227_CHDVYR (UniProt Q4J6C6)	0.00247
PPM1B_O75688_272_LEVSDDLENVCNWVVDTCLHK (UniProt O75688)	-0.122
PREB_Q9HCU5_161_VVCFNHDNTLLATGGTDGYVR (UniProt Q9HCU5)	0.182
PPP6C_O00743_265_CGNIASIMVFK (UniProt O00743)	0.0395
PPOX_P50336_410_EMPSHCLVHLHK (UniProt P50336)	-0.0029
PPP6R1_Q9UPN7_455_ILTSWEENDRVQCAGGPR (UniProt Q9UPN7)	0.0365
PPP6R3_Q5H9R7_519_NTVDLVTTCHIHSSSDDEIDFK (UniProt Q5H9R7)	0.48
PPP2R5C_Q13362_270_SLSVYHPQLAYCVVQFLEK (UniProt Q13362)	0.249
PPM1E_Q8WY54_307_QEMFPHDPAEALCR (UniProt Q8WY54)	-0.16
PRDM2_Q13029_875_ESHSVQPTCSAVK (UniProt Q13029)	-0.0111
PPP4R1_Q8TF05_198_TEAVAIMCK (UniProt Q8TF05)	0.164
PPP2R1B_P30154_389_DECPDVR (UniProt P30154)	0.204
PPP2R1A_P30153_317_EFCENLSADCR (UniProt P30153)	-0.0459
PPP6R2_O75170_87_FKYPNTACELLTCDVPQISDR (UniProt O75170)	-0.00427
PREB_Q9HCU5_280_LRQPPPCYLTAWDGSNFLPLR (UniProt Q9HCU5)	-0.019
PPM1F_P49593_315_IEALGGFVSHMDCWR (UniProt P49593)	-0.0134

Target	probe-labelled cysteine peptide fold change
PREB_Q9HCU5_128_CGAETQHEGLELR (UniProt Q9HCU5)	0.00495
PPP2R2A_P63151_398_KVCASGK (UniProt P63151)	-0.0547
PPP1R3G_B7ZBB8_225_VQCSTASGAEVK (UniProt B7ZBB8)	-0.0159
PPP1R3G_B7ZBB8_76_EEAAPQEQEELLECR (UniProt B7ZBB8)	-0.149
PRAME_P78395_188_EGACDELFSYLIEK (UniProt P78395)	-0.14
PPP2R1A_P30153_377_DECPEVR (UniProt P30153)	0.315
PPT1_P50897_160_CPGESSHICDFIR (UniProt P50897)	0.053
PPWD1_Q96BP3_512_LFPVECPK (UniProt Q96BP3)	0.113
PPT1_P50897_152+160_CPGESSHICDFIRK (UniProt P50897)	-0.276
PPP4R1_Q8TF05_84_EVCDDERDCIAVLER (UniProt Q8TF05)	0.0784
PRAG1_Q86YV5_221_LAAFAGTTSGCHQGPGPLR (UniProt Q86YV5)	0.0608
PRDX3_P30048_229_AFQYVETHGEVCPANWTPDSPTIKPSPAASK (UniProt P30048)	-0.0563
PPP2R2D_Q66LE6_245_SFNIVDIKPANMEELTEVITAAEFHPHQCNVFVYSSSK (UniProt Q66LE6)	-0.185
PREB_Q9HCU5_378_CQLHLLPSRR (UniProt Q9HCU5)	0.105
PPM1A_P35813_72_YCCEHLLDHITNNQDFK (UniProt P35813)	0.0578
PPP4R3A_Q6IN85_180_LLELFHVCEDLENIEGLHHLYEIIK (UniProt Q6IN85)	0.203
PPP2R1A_P30153_310+317_EFCENLSADCR (UniProt P30153)	0.0915
PPM1H_Q9ULR3_239_IPHECLVIGALESAFK (UniProt Q9ULR3)	0.0379
PPIP5K2_O43314_488_KVQLTYLPHGCPK (UniProt O43314)	-0.176
PPP1R10_Q96QC0_463_VPWVCPR (UniProt Q96QC0)	-0.029
